From paper PMC4924737

Chains of the proteins cited; added tags and fusions are not shown. Lines headed by an entry give the natural chain unless they say otherwise; changes in a name come on top. A line that says so, or that is headed by a name, gives the form on record, which may keep a tag or linker.
Wild-type MST3-HA (Q9Y6E0, form named): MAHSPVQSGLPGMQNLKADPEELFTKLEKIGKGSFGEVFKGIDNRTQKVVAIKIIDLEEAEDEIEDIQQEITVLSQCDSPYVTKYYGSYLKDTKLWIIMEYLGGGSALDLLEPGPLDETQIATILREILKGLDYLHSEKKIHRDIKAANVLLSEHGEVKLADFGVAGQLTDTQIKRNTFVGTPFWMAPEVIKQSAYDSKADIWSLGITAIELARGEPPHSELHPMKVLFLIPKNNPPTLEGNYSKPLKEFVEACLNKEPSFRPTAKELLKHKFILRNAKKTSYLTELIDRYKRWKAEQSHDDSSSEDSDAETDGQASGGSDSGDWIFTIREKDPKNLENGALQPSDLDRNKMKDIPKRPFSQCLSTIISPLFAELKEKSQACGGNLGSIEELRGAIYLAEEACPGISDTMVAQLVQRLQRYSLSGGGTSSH

Key:
Wild-type MST3-HA = Wild-type MST3-HA (UniProt Q9Y6E0); assay: co-IP; HEK293 cells co-transfected with the two tagged proteins; Triton X-100 lysis buffer (50 mM Tris-HCl pH 7.8, 150 mM NaCl, 1% Triton X-100); 0.5 mg total protein, 1 ug anti-myc or anti-HA antibody overnight at 4°C, protein G-Sepharose; immunoblot with anti-myc and anti-HA
[1] = target: ΔP-MST3-HA (MST3 with deletion of the proline-rich domain) (UniProt Q9Y6E0); assay: as above

| Molecule | binding (Wild-type MST3-HA) | binding [1] |
| --- | --- | --- |
| ΔN-520-VAV2-myc (from UniProt P52735) (domain or fragment) | binds |  |
| Wild-type VAV2-myc (protein, UniProt P52735 1-878) MEQWRQCGRWLIDCKVLPPNHRVVWPSAVVFDLAQALRDGVLLCQLLHNLSPGSIDLKDINFRPQMSQFLCLKNIRTFLKVCHDKFGLRNSELFDPFDLFDVRDFGKVISAVSRLSLHSIAQNKGIRPFPSEETTENDDDVYRSLEELADEHDLGEDIYDCVPCEDGGDDIYEDIIKVEVQQPMIRYMQKMGMTEDDKRNCCLLEIQETEAKYYRTLEDIEKNYMSPLRLVLSPADMAAVFINLEDLIKVHHSFLRAIDVSVMVGGSTLAKVFLDFKERLLIYGEYCSHMEHAQNTLNQLLASREDFRQKVEECTLKVQDGKFKLQDLLVVPMQRVLKYHLLLKELLSHSAERPERQQLKEALEAMQDLAMYINEVKRDKETLRKISEFQSSIENLQVKLEEFGRPKIDGELKVRSIVNHTKQDRYLFLFDKVVIVCKRKGYSYELKEIIELLFHKMTDDPMNNKDVKKSHGKMWSYGFYLIHLQGKQGFQFFCKTEDMKRKWMEQFEMAMSNIKPDKANANHHSFQMYTFDKTTNCKACKMFLRGTFYQGYMCTKCGVGAHKECLEVIPPCKFTSPADLDASGAGPGPKMVAMQNYHGNPAPPGKPVLTFQTGDVLELLRGDPESPWWEGRLVQTRKSGYFPSSSVKPCPVDGRPPISRPPSREIDYTAYPWFAGNMERQQTDNLLKSHASGTYLIRERPAEAERFAISIKFNDEVKHIKVVEKDNWIHITEAKKFDSLLELVEYYQCHSLKESFKQLDTTLKYPYKSRERSASRASSRSPASCASYNFSFLSPQGLSFASQGPSAPFWSVFTPRVIGTAVARYNFAARDMRELSLREGDVVRIYSRIGGDQGWWKGETNGRIGWFPSTYVEEEGIQ |  | no binding |

Continued, values first:

| binding (Wild-type MST3-HA) | binding [1] | Molecule |
| --- | --- | --- |
| binds |  | ΔN-184-VAV2-myc (from UniProt P52735) (domain or fragment) |
| binds |  | ΔN-655-VAV2-myc (from UniProt P52735) (domain or fragment) |

These are yes or no findings as the source states them, for the method shown. Binding seen in cells or lysates may run through a third protein. For some of these results: Binding calls can cover weak binding; strength is not graded here. For some of these results: Tags and fused reporters may be left off the sequences shown.
